# ± gives the standard deviation of the averaged measurements. Only a part is listed here, and it is no random draw.
# Protein sequences, listed by entry. Tags and fused reporters are not part of them. Lines headed by an entry give the natural chain unless they say otherwise; changes in a name come on top.
# UniProt Q8WUH1: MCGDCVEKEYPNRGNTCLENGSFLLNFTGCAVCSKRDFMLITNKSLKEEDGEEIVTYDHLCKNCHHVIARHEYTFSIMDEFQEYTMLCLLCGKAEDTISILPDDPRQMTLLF
# UniProt Q9NVN3: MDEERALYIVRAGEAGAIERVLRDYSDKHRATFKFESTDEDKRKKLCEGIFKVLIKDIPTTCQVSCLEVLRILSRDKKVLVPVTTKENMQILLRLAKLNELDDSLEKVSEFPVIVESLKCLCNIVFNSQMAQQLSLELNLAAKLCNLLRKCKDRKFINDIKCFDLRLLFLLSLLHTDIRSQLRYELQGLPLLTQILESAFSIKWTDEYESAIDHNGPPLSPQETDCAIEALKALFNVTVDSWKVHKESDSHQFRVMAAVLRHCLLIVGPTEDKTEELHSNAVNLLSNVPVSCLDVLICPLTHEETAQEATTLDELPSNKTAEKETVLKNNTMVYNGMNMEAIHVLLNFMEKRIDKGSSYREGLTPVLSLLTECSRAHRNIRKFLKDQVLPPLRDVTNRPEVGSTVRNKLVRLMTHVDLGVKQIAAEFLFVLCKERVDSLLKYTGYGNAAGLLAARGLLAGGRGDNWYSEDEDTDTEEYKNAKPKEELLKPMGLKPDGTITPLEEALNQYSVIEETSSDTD
# UniProt P18859: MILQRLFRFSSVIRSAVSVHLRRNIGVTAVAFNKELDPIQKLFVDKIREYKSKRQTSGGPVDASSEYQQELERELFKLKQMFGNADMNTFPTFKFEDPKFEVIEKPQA
# UniProt A6NDG6: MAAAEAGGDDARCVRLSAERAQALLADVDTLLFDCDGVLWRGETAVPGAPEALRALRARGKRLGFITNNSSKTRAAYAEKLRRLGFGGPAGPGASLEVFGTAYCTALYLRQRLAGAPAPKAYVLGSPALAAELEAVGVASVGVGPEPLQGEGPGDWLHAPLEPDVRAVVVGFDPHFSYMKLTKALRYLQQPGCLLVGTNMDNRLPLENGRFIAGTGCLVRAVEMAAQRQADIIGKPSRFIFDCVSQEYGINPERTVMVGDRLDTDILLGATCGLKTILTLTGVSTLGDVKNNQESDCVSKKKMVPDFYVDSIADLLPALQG
# UniProt O76075: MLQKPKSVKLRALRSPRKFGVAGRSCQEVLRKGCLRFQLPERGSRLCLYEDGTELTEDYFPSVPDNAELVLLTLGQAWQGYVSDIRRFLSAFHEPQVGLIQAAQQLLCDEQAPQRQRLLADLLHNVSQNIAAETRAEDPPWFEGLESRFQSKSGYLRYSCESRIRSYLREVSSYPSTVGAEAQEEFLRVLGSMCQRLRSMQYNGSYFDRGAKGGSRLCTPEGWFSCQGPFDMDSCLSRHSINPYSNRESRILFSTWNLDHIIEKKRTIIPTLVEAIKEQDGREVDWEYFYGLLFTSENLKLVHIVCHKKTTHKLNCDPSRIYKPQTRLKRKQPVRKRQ
# UniProt P0DMV8, whole entry, looked up: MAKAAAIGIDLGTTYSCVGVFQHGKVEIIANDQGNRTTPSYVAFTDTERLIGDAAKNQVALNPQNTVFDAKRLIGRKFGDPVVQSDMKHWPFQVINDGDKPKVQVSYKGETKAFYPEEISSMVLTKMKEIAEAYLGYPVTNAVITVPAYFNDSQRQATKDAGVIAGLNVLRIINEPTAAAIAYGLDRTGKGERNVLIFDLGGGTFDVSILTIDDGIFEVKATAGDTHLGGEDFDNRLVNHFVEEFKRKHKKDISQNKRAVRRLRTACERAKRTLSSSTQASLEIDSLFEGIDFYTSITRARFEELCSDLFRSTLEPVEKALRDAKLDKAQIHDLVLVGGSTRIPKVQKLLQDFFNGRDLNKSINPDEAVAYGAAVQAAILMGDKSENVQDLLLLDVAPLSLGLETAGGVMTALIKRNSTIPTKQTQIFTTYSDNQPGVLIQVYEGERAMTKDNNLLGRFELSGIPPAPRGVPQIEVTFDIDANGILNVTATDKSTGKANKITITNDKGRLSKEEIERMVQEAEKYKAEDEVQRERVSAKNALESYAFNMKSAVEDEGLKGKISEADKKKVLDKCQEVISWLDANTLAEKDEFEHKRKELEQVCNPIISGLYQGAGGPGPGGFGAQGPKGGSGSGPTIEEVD
# UniProt P0DMV9, whole entry, looked up: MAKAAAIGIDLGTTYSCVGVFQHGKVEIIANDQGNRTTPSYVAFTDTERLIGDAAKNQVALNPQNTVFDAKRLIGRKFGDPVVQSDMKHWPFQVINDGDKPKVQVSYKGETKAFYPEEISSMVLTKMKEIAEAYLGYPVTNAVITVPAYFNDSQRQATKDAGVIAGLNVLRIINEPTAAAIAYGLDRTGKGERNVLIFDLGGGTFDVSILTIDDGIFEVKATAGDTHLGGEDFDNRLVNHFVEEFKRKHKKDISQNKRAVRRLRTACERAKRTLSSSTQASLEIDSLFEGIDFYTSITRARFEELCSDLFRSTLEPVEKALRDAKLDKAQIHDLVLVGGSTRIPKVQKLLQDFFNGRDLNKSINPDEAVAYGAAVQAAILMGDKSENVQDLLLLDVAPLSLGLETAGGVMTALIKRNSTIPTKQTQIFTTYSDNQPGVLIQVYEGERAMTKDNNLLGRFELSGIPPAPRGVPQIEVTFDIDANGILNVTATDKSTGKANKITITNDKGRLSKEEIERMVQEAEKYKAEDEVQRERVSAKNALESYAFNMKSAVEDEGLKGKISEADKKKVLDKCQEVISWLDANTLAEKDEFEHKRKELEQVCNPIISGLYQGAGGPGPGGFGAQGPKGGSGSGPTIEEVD
# UniProt Q8IYB3: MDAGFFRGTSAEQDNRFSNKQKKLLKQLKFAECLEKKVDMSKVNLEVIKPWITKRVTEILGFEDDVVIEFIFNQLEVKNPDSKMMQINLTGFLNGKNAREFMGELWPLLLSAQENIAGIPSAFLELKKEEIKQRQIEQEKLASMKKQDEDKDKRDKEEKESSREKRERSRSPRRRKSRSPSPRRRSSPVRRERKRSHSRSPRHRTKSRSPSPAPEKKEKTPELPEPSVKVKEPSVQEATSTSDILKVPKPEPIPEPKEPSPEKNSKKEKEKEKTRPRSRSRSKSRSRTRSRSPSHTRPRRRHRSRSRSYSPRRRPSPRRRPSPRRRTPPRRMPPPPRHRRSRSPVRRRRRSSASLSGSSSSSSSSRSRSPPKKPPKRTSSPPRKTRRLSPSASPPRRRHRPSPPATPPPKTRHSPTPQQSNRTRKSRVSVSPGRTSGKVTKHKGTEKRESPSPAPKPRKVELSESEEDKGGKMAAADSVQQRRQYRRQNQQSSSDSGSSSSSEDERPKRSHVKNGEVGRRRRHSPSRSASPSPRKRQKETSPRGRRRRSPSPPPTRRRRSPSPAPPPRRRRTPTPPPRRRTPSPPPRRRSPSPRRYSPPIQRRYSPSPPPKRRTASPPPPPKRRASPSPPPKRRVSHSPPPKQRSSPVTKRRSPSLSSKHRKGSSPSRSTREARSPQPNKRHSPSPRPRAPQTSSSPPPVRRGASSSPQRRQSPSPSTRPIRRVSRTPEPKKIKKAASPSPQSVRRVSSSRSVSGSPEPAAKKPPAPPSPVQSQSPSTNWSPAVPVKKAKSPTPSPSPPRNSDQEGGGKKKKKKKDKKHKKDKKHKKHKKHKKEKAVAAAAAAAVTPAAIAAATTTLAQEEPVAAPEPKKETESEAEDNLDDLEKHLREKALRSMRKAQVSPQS
# UniProt P55196: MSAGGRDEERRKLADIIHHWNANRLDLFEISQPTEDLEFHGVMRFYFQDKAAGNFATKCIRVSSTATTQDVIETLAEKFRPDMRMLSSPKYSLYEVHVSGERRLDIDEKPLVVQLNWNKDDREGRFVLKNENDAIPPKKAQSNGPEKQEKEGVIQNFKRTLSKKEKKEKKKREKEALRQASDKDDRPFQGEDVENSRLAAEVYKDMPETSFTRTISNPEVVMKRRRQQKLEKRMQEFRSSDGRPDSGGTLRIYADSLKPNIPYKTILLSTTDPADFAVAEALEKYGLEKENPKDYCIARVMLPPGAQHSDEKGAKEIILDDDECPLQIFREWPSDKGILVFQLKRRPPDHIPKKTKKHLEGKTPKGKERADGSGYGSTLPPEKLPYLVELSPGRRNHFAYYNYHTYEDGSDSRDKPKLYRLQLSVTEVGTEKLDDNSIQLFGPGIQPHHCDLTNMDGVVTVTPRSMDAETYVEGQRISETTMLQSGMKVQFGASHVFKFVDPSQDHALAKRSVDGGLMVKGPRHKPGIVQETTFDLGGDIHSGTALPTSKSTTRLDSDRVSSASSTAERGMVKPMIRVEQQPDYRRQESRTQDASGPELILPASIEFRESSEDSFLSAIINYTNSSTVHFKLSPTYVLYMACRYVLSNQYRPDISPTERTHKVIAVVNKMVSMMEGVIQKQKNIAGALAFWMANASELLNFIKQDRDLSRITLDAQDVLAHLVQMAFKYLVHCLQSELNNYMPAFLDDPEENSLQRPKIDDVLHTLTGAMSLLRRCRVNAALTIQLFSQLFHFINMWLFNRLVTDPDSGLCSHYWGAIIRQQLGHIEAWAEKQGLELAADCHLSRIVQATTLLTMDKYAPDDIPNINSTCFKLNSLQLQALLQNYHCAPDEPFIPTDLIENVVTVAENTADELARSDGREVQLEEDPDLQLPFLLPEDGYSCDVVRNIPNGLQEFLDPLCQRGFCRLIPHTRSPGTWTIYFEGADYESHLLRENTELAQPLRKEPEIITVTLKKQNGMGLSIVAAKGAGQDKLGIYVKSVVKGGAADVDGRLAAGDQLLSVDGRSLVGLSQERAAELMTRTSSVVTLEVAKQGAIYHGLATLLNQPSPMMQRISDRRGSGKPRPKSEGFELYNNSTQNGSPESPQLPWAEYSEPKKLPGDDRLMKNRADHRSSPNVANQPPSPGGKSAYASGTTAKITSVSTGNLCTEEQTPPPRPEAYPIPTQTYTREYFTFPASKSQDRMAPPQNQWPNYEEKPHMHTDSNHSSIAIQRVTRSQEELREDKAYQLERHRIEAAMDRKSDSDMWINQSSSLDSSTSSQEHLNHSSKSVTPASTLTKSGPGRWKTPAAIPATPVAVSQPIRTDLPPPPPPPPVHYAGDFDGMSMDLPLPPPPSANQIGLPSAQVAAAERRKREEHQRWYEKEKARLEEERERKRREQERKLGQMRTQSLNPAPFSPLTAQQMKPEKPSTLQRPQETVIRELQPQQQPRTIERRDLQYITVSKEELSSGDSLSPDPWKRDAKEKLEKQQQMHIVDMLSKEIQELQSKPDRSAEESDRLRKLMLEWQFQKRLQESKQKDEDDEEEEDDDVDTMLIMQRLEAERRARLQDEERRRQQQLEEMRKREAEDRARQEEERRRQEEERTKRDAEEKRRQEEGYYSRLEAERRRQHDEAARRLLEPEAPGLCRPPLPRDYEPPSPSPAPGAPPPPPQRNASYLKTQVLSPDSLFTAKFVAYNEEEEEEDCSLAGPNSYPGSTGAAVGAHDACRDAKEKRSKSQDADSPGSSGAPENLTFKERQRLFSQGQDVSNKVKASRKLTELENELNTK
# UniProt Q5W0Z9: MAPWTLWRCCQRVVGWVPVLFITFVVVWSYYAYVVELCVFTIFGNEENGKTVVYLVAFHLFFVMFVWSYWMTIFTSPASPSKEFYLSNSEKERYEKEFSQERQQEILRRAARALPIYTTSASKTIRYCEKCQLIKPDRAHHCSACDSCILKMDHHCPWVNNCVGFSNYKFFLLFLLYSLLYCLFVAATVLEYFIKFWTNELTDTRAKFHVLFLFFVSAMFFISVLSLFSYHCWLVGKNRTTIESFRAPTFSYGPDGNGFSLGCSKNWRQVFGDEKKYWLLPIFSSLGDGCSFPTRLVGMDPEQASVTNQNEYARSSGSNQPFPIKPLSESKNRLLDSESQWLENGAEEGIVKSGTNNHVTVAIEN
# UniProt P55854, whole entry: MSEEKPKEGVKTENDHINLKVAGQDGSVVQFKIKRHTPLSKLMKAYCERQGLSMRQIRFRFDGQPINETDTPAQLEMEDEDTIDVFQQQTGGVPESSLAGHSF
# UniProt P78317: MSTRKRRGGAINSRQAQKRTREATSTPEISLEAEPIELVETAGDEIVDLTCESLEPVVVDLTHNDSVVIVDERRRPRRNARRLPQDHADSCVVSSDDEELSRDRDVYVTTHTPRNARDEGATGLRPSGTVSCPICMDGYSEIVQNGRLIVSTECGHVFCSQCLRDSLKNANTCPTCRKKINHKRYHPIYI
# UniProt Q15329: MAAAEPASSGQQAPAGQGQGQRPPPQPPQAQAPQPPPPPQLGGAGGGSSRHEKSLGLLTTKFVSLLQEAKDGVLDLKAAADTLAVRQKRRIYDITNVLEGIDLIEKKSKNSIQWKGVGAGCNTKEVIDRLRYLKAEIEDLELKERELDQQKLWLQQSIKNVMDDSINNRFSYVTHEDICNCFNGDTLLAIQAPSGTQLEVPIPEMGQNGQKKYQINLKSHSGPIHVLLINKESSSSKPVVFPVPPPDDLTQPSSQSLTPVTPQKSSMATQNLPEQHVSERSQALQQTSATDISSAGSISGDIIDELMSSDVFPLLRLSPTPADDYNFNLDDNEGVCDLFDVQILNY
# Compound: Nc1ncnc2c1ncn2[C@@H]1O[C@H](COP(=O)(O)OP(=O)(O)OP(=O)(O)O)[C@@H](O)[C@H]1O [adenosine triphosphate]
# Assay: NP40-soluble protein abundance relative to vehicle (solubility fold change) (ratio); higher = more soluble protein in presence of ATP
# Outline: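 Data come from three independent experiments in which Dounce-homogenised Jurkat crude lysate was treated at eight concentrations from 0.1 to 10 mM. Treatment ran 10 min at room temperature and then 3 min at 37 °C, after which 0.8% NP40 and benzonase were added for 60 min at 4 °C before ultracentrifugation. The supernatant underwent TMT labelling and LC-MS/MS, and vsn-normalised intensities were expressed as fold change against the detergent-processed vehicle in each replicate.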
Target,NP40-soluble protein abundance (concentration: 1mM),NP40-soluble protein abundance (concentration: 2mM),NP40-soluble protein abundance (concentration: 4mM),NP40-soluble protein abundance (concentration: 6mM),NP40-soluble protein abundance (concentration: 8mM),NP40-soluble protein abundance (concentration: 10mM)
B4DL54 and related entries (UniProt Q8WUH1),1.02 ± 0.11,1 ± 0.083,0.982 ± 0.062,0.988 ± 0.12,1.02 ± 0.058,0.991 ± 0.052
B7WPL0 and related entries (UniProt Q9NVN3),0.92 ± 0.063,0.971 ± 0.049,0.925 ± 0.052,0.937 ± 0.031,0.898 ± 0.016,0.916 ± 0.055
C9J406 and related entries (UniProt Q16891),0.993 ± 0.051,0.942 ± 0.032,0.906 ± 0.04,0.974 ± 0.13,0.916 ± 0.053,0.901 ± 0.041
A8MUH2 and related entries (UniProt P18859),0.851 ± 0.14,0.744 ± 0.083,0.79 ± 0.1,0.848 ± 0.18,0.771 ± 0.13,0.782 ± 0.15
PGP (UniProt A6NDG6),0.966 ± 0.029,0.97 ± 0.021,0.943 ± 0.022,0.958 ± 0.048,0.94 ± 0.034,0.947 ± 0.041
B4DZS0 and related entries (UniProt O76075),1.05 ± 0.047,1.02 ± 0.044,1.01 ± 0.047,0.999 ± 0.085,1.01 ± 0.053,1.01 ± 0.036
A0A0G2JIW1|P0DMV8 and related entries (UniProt P0DMV9+P0DMV8),1.02 ± 0.055,1.01 ± 0.017,0.978 ± 0.033,1.03 ± 0.013,0.982 ± 0.027,0.966 ± 0.012
A9Z1X7 and related entries (UniProt Q8IYB3),1.38 ± 0.1,1.43 ± 0.095,1.47 ± 0.11,1.56 ± 0.12,1.54 ± 0.099,1.57 ± 0.077
A8MQ02 and related entries (UniProt P55196),1.05 ± 0.065,1.06 ± 0.082,1.08 ± 0.1,1.08 ± 0.048,1.02 ± 0.035,1.03 ± 0.052
B4DRN8 and related entries (UniProt Q5W0Z9),1.01 ± 0.025,1.03 ± 0.047,1.02 ± 0.081,1.01 ± 0.11,1 ± 0.095,1 ± 0.046
A8MU27 and related entries (UniProt P55854),0.998 ± 0.14,0.959 ± 0.098,0.942 ± 0.077,1.04 ± 0.12,0.913 ± 0.084,0.863 ± 0.24
C9J2Y9 and related entries (UniProt P30876),1.08 ± 0.075,1.05 ± 0.038,1.06 ± 0.02,1.02 ± 0.044,1.1 ± 0.028,1.07 ± 0.059
D6RA71 and related entries (UniProt P78317),0.896 ± 0.14,0.966 ± 0.062,0.944 ± 0.089,0.948 ± 0.061,0.918 ± 0.081,0.904 ± 0.075
C9JYE9 and related entries (UniProt Q15329),0.992 ± 0.12,0.974 ± 0.054,0.96 ± 0.082,1.05 ± 0.054,0.894 ± 0.018,0.902 ± 0.043
UniProt B4DLN1,0.998 ± 0.026,0.9549 ± 0.0023,0.9743 ± 0.0057,0.921 ± 0.02,0.973 ± 0.04,1.02 ± 0.05

# Just NP40-soluble protein abundance (concentration: 6mM) and NP40-soluble protein abundance (concentration: 1mM), for some of the entries so far:
Target	NP40-soluble protein abundance (concentration: 6mM)	NP40-soluble protein abundance (concentration: 1mM)
C9JYE9 and related entries (UniProt Q15329)	1.05 ± 0.054	0.992 ± 0.12
UniProt B4DLN1	0.921 ± 0.02	0.998 ± 0.026
